Changes are numbered by the printed parent chain. No constants are given. Whether binding was seen depends on the method and setting. In cells and extracts the contact can be indirect. For some assays here: Binding calls can cover weak binding; strength is not graded here. Where a sequence is shown, tags or fusion partners need not be part of it.

Results on one substance are retold here after article PMC8759595.

The target in one assay is T1, FLAG-ACBD5 (COS-7) (UniProt Q5T8D3).
T1 sequence: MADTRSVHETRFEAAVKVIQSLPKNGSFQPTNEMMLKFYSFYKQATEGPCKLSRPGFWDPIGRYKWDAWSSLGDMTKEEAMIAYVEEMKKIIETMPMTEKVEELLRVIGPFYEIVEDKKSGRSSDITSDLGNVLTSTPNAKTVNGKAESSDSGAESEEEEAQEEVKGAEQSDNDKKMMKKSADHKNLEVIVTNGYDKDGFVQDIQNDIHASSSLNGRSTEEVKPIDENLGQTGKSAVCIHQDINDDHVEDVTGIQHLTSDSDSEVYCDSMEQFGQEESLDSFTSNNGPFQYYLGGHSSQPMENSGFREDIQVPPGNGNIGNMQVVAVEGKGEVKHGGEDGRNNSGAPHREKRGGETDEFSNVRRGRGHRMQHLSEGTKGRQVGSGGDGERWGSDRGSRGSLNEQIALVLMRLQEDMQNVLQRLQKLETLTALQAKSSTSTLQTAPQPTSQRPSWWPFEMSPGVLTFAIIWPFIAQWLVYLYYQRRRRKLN
Description: condition: only lysate treated with λ protein phosphatase (λPP); co-IP; as a3, but lysates treated with λPP for 1 h before the IP (Figs. 1 E and S1 A).

A further assay deals with T2, Myc-ACBD5 (UniProt Q5T8D3).
T2 sequence: T1 sequence
Description: co-IP; Myc-ACBD5 constructs or Myc-VAPB in COS-7 lysates (10 mM Tris-HCl pH 7.4, 150 mM NaCl, 0.5 mM EDTA, 0.5% NP-40, phosphatase inhibitor), Myc-TRAP magnetic agarose beads 1 h at 4°C; immunoblot; in some panels GSK3β WT or K85A coexpressed (Figs. 2 C, 3 A, 5 A, 7 A, S1 C, S4 B). In general terms: In western blotting, separated proteins are transferred to a membrane and probed.

A further assay deals with T3, Myc-ACBD5 S259A/S261A (UniProt Q5T8D3).
T3 sequence: T1 sequence with S259A, S261A
The description is as above.

The target in a further assay is T4, Myc-ACBD5 T252A (UniProt Q5T8D3).
T4 sequence: T1 sequence with T252A
The description is as above.

A further assay addresses T5, Myc-ACBD5 T258A/S259A (UniProt Q5T8D3).
T5 sequence: T1 sequence with T258A, S259A
The assay is described as above.

Consider endogenous VAPB (COS-7 cells), for which the binding entry is given as “no binding” with FLAG-ACBD5 (COS-7); “binds” in the assay with Myc-ACBD5; “binds” with Myc-ACBD5 S259A/S261A; “binds” with Myc-ACBD5 T252A; “binds” in the assay with Myc-ACBD5 T258A/S259A.
